Reference: PMC10586699

The chains behind the UniProt entries cited, without tags or fusion partners. Where a name states a change or a piece, a line headed by the entry shows the natural chain unless it says otherwise.
UniProt Q06488: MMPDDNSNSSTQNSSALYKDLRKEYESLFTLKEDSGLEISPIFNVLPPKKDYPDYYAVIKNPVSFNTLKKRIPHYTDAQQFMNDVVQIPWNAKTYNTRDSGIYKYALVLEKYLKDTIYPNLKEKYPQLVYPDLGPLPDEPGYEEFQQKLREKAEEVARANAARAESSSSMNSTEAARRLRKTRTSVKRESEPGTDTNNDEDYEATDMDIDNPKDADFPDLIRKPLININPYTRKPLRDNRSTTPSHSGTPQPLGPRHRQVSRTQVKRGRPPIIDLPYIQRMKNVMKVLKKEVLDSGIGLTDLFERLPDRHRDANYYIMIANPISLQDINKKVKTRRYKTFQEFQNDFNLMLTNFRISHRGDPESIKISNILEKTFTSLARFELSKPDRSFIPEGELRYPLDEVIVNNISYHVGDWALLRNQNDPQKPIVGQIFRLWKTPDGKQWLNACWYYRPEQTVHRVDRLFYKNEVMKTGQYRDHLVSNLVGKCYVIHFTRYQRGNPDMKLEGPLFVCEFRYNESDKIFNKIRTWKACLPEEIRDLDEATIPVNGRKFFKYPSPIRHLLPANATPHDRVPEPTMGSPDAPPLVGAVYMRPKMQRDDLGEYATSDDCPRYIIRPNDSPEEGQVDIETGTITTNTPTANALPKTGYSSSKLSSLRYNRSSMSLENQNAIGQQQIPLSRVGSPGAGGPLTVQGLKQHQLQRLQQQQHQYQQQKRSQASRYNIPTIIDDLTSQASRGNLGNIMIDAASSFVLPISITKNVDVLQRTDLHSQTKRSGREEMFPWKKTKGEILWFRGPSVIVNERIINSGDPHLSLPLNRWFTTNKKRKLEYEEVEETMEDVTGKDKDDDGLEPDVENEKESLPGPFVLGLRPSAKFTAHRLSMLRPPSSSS

Target: Rsc2 with CBP tag only (bait for the RSC2 complex) (yeast (S. cerevisiae)) (UniProt Q06488)
Assay: co-IP; yeast extracts; primary enrichment with anti-HA (Rep1), anti-Myc (Rep2) or anti-CBP (Rsc2-CBP or Rsc1-CBP); western blot with each of these antibodies

Row | binding | Binder
1 | binds | HA-tagged Rep1 expressed in yeast (protein, UniProt P03871 1-373) MNGERLLACIKQCIMQHFQPMVYDESRCVIETTRGTFPVPDNYKKYKTLAFAFVGHVLNTDDTPVIEKELDWPDPALVYNTIVDRIINHPELSQFISVAFISQLKATIGEGLDINVKGTLNRRGKGIRRPKGVFFRYMESPFVNTKVTAFFSYLRDYNKIASEYHNNTKFILTFSCQAYWASGPNFSALKNVIRCSIIHEYISKFVEREQDKGHIGDQELPPEEDPSRELNNVQHEVNSLTEQDAEADEGLWGEIDSLCEKWQSEAEDQTEAEIIADRIIGNSQRMANLKIRRTKFKSVLYHILKELIQSQGTVKVYRGSSFSHDSIKISLHYEEQHITAVWVYLTVKFEEHWKPVDVEVEFRCKFKERKVDG
2 | binds | Myc-tagged Rep2 expressed in yeast (protein, UniProt P03872 1-296) MDDIETAKNLTVKARTAYSVWDVCRLFIEMIAPDVDIDIESKRKSDELLFPGYVIRPMESLTTGRPYGLDSSAEDSSVSSDSSAEVILPAAKMVKERFDSIGNGMLSSQEASQAAIDLMLQNNKLLDNRKQLYKSIAIIIGRLPEKDKKRATEMLMRKMDCTQLLVPPAPTEEDVMKLVSVVTQLLTLVPPDRQAALIGDLFIPESLKDIFNSFNELAAENRLQQKKSELEGRTEVNHANTNEEVPSRRTRSRDTNARGAYKLQNTITEGPKAVPTKKRRVATRVRGRKSRNTSRV

No constants are given. Whether binding was seen depends on the method and setting. Binding seen in cells or lysates may run through a third protein. Binding can be weak; no strength is given. Tags and fused reporters may be left off the sequences shown.
